In assay [1] the target is T-complex protein 1 (TCP1) (human (endogenous in HL-60-G4, KG1α, Kasumi-1)) (UniProt P17987). The assay is described as follows: co-IP; cell lysate pre-cleared with Protein A/G magnetic beads; 1 μg TCP1 antibody (normal rabbit IgG as control) at 4 °C for 12 h, beads 6 h; Western blot; scramble and shTCP1 cells (Figure 3D); for CDC20 cells with and without FTY720 for 24 h (Figure 7F).

The chains behind the UniProt entries cited, without tags or fusion partners.
UniProt P17987: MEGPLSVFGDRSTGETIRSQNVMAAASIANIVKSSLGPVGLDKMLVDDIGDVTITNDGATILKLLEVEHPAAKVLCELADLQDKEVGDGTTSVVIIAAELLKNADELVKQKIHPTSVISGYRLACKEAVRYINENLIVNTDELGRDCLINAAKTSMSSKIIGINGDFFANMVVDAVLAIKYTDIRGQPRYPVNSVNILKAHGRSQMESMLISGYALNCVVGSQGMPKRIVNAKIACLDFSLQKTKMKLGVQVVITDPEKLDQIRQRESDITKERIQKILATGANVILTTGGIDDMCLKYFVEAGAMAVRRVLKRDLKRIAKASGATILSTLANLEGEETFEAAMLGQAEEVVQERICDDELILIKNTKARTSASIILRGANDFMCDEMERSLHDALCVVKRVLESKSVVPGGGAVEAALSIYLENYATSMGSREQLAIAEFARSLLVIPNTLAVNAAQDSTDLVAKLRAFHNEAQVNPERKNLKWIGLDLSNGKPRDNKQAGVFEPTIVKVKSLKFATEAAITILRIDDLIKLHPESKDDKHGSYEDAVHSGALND
UniProt P53350: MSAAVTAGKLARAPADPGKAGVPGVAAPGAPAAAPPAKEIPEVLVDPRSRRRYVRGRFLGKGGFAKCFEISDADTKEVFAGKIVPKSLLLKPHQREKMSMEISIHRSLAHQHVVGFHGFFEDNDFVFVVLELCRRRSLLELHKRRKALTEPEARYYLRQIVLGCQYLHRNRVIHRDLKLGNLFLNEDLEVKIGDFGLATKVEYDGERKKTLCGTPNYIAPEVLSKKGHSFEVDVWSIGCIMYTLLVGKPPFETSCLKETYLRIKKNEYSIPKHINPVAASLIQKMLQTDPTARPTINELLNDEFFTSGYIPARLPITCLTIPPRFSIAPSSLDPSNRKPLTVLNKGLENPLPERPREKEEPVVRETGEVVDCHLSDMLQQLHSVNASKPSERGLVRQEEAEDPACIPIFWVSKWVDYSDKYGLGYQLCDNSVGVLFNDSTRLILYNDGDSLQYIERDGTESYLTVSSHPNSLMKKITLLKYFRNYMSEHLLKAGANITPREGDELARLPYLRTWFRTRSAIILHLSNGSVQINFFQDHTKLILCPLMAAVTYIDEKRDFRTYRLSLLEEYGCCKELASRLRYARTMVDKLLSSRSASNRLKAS
UniProt Q12834: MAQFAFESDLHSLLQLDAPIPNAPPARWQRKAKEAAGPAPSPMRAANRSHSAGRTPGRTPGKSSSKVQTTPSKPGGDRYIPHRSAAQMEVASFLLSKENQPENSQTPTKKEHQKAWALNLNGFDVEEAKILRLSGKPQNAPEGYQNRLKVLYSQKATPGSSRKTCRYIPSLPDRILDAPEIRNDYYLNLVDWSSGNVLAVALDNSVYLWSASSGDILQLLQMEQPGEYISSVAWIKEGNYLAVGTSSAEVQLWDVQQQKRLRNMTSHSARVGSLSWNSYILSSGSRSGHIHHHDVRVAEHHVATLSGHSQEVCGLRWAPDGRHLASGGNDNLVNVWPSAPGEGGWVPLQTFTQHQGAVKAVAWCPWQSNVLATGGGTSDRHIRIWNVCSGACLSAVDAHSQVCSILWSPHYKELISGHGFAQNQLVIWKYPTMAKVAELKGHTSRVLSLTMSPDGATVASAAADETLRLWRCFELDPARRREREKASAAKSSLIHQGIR

Assay [2] shares this target. The assay is described as follows: condition: only cells treated with 30 μmol L^−1 FTY720 for 24 h; co-IP; as a1, cells treated before lysis with FTY720 for 24 h: 30 μmol·L^−1 (HL-60-G4) or 40 μmol·L^−1 (Kasumi-1).

These are yes or no findings as the source states them, for the method shown. Binding seen in cells or lysates may run through a third protein. Some binding calls cover weakened binding; strength is not graded here.

Consider PLK1 (from UniProt P53350 1-603), for which the binding result in assay [1] is listed as “binds”; in assay [2], “no binding”. Take CDC20 (from UniProt Q12834 1-499): the binding entry in assay [1] is reported as “binds”.

The values are drawn from publication PMC12114683, “The Molecular Chaperone TCP1 Affects Carcinogenicity and Is a Potential Therapeutic Target for Acute Myeloid Leukemia” (Pharmaceutics, 2025).
